Reference: PMC9506480, “Synthesis and Evaluation of Antiproliferative Activity, Topoisomerase IIα Inhibition, DNA Binding and Non-Clinical Toxicity of New Acridine–Thiosemicarbazone Derivatives” (Pharmaceuticals, 2022)

These compounds were tested on CT DNA (assay: CT DNA binding by UV–Vis absorption spectroscopy). Details: compound 40 µM, CT DNA 0 to 60 µM; footnote 1 hypsochromic shift, 2 bathochromic shift.
Parameters: species or system calf
Procedure: Absorption spectroscopy is a convenient and simple method for probing the binding of small molecules to DNA. The interaction of selected acridine–thiosemicarbazone derivatives with CT DNA was studied in the 220–500 nm region. Binding constants (Kb) were calculated from [DNA]/(Ɛa − Ɛf) versus [DNA], in which Kb is given by the ratio of slope to the intercept. […] For this, the regions chosen were the ones with the highest absorption intensity above 300 nm, due to the lower interference in DNA absorption in this region (ESI, Figures S50 and S53).
The concentration of the calf thymus, Type I, fibers (CT DNA), was determined based on the extinction coefficient of the absorbance at 260 nm (6600 L mol^−1 cm^−1). All compounds were dissolved in methanol (HPLC grade) at a concentration of 1 mmol L^−1 (stock solution). Working solutions were prepared by diluting the stock solution using Tris-HCl buffer (pH 7.4), with concentrations of 40 µmol L^−1. Under the optimized concentration, the compounds were titered with increasing concentrations of CT DNA (5 to 60 µmol L^−1). After shaking the system and incubating at room temperature for 10 min, the measurements were recorded using a JASCO J818 spectropolarimeter in the range of 220 to 500 nm at 298 K. The intrinsic bond constant (Kb) was obtained by adjusting the data according to the equation below:[DNA]/(Ɛa − Ɛf) = [DNA]/(Ɛb − Ɛf) + 1/[Kb (Ɛb − Ɛf)] where Ɛa, Ɛb and Ɛf are the apparent extinction coefficient of the compounds, the extinction coefficient of the compounds found in their […] and the extinction coefficient of the compounds when fully DNA-bound, respectively. The graph of [DNA]/(Ɛa − Ɛf) versus [DNA] was used to obtain the Kb from the ratio between the slope and the intercept, as previously described in the literature. Binding data were obtained using SigmaPlot 10.0 software. The study of possible DNA denaturation using methanol–water solutions was evaluated up to the maximum final concentration of methanol in the assays (6%) (ESI, Figures S50 and S53).

Compound	∆λ
Oc1ccc(/C=N/NC(=S)Nc2c3ccccc3nc3ccccc23)cc1 [CL-07, (E)-N-(acridin-9-yl)-2-(4-hydroxybenzylidene)hydrazine-1-carbothioamide]	3 ^1
COc1ccc2nc3cc(Cl)ccc3c(NC(=S)N/N=C/c3cccc(O)c3)c2c1 [DL-08, (E)-N-(6-chloro-2-methoxyacridin-9-yl)-2-(3-hydroxybenzylidene)hydrazine-1-carbothioamide]	3 ^2
CC[n+]1c(-c2ccccc2)c2cc(N)ccc2c2ccc(N)cc21 [EtBr, ethidium bromide, reference compound]	6 ^2
COc1ccc2nc3cc(Cl)ccc3c(NC(=S)N/N=C/c3ccccc3)c2c1 [DL-01, (E)-2-benzylidene-N-(6-chloro-2-methoxyacridin-9-yl)hydrazine-1-carbothioamide]	2 ^2
